This is an account of results in PubChem BioAssay AID1508600 (Functional Genomics Laboratory (NCATS/FGL), 2020).

In all, about 53,000 sequences went through this assay and about 3,700 (7%) were called active.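 The calls were made as follows: active = gene knockdowns whose robust z-score for IL-1 alpha signal is at least 2 or at most -2, so actives lie on both sides; inactive = the rest.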 Some of the results follow.

The nature of this experiment: Components of the Cytosolic LPS Sensing Pathway: Gene Identification via Genome-wide siRNA Screen.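 Also: robust z of the log signal after scaling to non-targeting control siRNA wells of the plate.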 The following applies: RAW264.7 macrophages, IL-1a HTRF, actives lie on both sides, screened at 100 nM (by protocol), cells primed 5 h with Pam3CSK4 first. The essentials:
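RAW264.7 mouse macrophages reverse-transfected with single siRNAs (100 nM final) for 48h, primed with Pam3CSK4 for 5 hours, then transfected with LipidA for 24 hour. Supernatant IL-1a read by HTRF; values normalized to negative-control median, log-transformed robust z-scores.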
Turning to CCCUCUGGUUACUAUUAUUTT against Tmem254a, the z-score was inactive: 0.808.
With CCAGUUCAAGAGACUCGUATT against Dio1 the figure was inactive: 0.659; with CCUUCAUGUCUGCAUAUUUTT against Cth, inactive: -0.951; with GGUGUGCUGAGAAGUACUGTT against Acot9, inactive: -1.91.
Next, GCUAAGAAAGUACAAACCATT against Tmpo: inactive: -1.12; GGGAGAAACAAGUGUGUAATT against Snrnp35: inactive: 0.246.
Consider GGGAUUGGAAGAGAAAUGGTT against Hsd11b1, for which the z-score was inactive: 0.362.
As for GGCUUUCACGCUUUGACAATT against Ap1m2, the z-score was inactive: 0.209.
Take GGGUAACUAACAUUAAUGGTT against Adam12: the z-score was inactive: 1.58.
With GGCAUUGUAGAGAUGACUCTT against Trmt2b the figure was inactive: 1.81.
Consider CCCUACCUUGAACGAGUACTT against Apoa1, for which the z-score was inactive: -1.02.
Next, GGUGGACUGGAUCUGAAUGTT against Caap1: inactive: -1.33; GCACACCAGAACUGCAGCUTT against Olfr967: inactive: -0.724.
With GGCUGUUGAGUAUAUAUAUTT against Slc6a8 the figure was inactive: 0.309; with GGAAAGCUUGAAUGUUGAGTT against Mup3, inactive: 1.44.
Next, GGGAGCAAAAGCUUUACUUTT against Prl3c1: active: 2.25.
Consider GCAUCAUUUCUGGGAUGGGTT against Scrg1, for which the z-score was inactive: 0.0371.
With GGUCUACAGGCAUCAAUGATT against Nr5a1 the figure was inactive: 0.425; with GGAUAGAGACUGAUGCUCATT against Sh2d1b1, inactive: -0.226.
With GGACAGGAUGAGUUUGACATT against Rhou the figure was inactive: -1.52; with GGCUCAUUCACUAAUCCGATT against Gemin2, inactive: 0.0536.
With CAUGUCAUGCACAAUAGUUTT against Cd200r4 the figure was inactive: -0.863; with CCACCCUGCACAGAAUCUATT against Ppp2r5c, inactive: 0.396; with CCAUUGAUGUUUGAUCGGATT against Fndc4, inactive: -0.849.
Consider GGGCUUUGACUUCAAGACUTT against Mat1a, for which the z-score is inactive: -0.14.
With GGGUCAGAAUGUUUCCUUCTT against Olfr331 the figure was inactive: 0.946.
With GGAAAUGCUUGUUAAGGCUTT against Rwdd3 the figure was inactive: 0.0372.
With GGCGUAGAUGAGUUGGAAATT against Tceal8 the figure was inactive: 0.544; with GCGUGGUGAACAACUAUGCTT against Slc35b4, inactive: 0.3; with GGGAAGUUCGAGCCAAUGUTT against Batf, inactive: 1.5.
For the sequence GCCUUAGGCCUUUGUUUCCTT against Tpgs2, the z-score is inactive: 0.124.
On to GCAUCGUUUGUGAGAAUUUTT against Perp, for which the z-score was inactive: -0.61.
With GGUAAUGUAUUUCAGCUCCTT against Slc6a17 the figure was inactive: -0.527; with GGCUCUUAGAUACACUUGUTT against Dnajc12, inactive: -1.94.
Next, GCCGAGGUAUCCCUUGUUUTT against Sestd1: inactive: -0.455; GCAAACGAGCUAGUUGUAUTT against Olfr1137: inactive: 0.481.
Next, GUUCUGAGAAGAAACCCAUTT against Vmn1r208: inactive: -0.292; GGAGCAGUUCCAUAUGUGCTT against Cap1: inactive: 1.75; GGAAAAGGAUAAGGAAAGCTT against Zfhx3: inactive: 1.61.
Consider GGAGUUGGAGUUUAUAUUATT against Olfr846, for which the z-score was inactive: 0.0237.
With CCAUAAGUUUGAAGAAUCCTT against Glg1 the figure was inactive: 1.45; with CCCAAAAUGACAUAACAGATT against Pilra, inactive: -0.568.
Regarding CCGCUUCUCUAGUGAAUAATT against Uros, the z-score is inactive: -1.56.
With GCUGGCUAGUUUGGGCAUATT against Tsc22d4 the figure was inactive: 1.27.
With GGGCUCUUAUGUGAACUUUTT against Lman2 the figure was inactive: 0.373; with GUCUGAGAGGAUUGAAACUTT against Manbal, inactive: -0.7.
With GGAUAACUCUUUCAAAGACTT against Lrit2 the figure was inactive: 0.768; with GGCAUCUUCAUCAAGGAUUTT against Sf3a1, inactive: -1.1.
Consider GCGUAAAUCUCCACACUACTT against Vmn1r54, for which the z-score was inactive: -1.57.
With CGUAGCUGUAAUUCUUCAGTT against Pcdhgb2 the figure was active: 2.02; with CGUGAUGGACAGUUUAGACTT against Cenpj, inactive: -1.48.
Next, GCUCCUACUACUGCUUUGCTT against Crem: inactive: 0.979.
Regarding GCCACCUCAUGAAUAAAAGTT against Cd8b1, the z-score was inactive: -1.94.
With GGGUGAGAAUCAGCUAUACTT against Coro7, the z-score was inactive: -0.37.
As for GCUCUGUAAUAUACUUGUATT against Gtf2i, the z-score was inactive: -1.62.
CCGAUUUGGGUCAAUUUUATT against Usf3: the z-score was inactive: -0.047.
With GGAGUGACAAAAGAAAUAATT against Nudt12 the figure was inactive: 0.489; with GGACAUCUGGAUGUUCCCATT against Pgghg, inactive: -1.1.
With GGACAUUACACUGUUCAAATT against Kcnh5 the figure was inactive: 1.43; with GGACCACUUUUUCAGACUCTT against Ralgapa1, inactive: 0.945; with GGACCGUCAGUGUCAUGGATT against Zfp397, active: -2.55.
Next, GGUGUUUUAAGAUUGAAUGTT against Ccn1: inactive: 0.782; CCAAGUCUUGUAGUGGAGUTT against Vdac3: inactive: -0.269; GCAGCCUUCGUGAGUCUGUTT against Asb1: inactive: -0.666.
For AGUGCCUGUCUGAUUGCUCTT against Epsti1, the z-score is inactive: -0.469.
With GGCGAGCGACUGUGUAAAGTT against Ccp110 the figure was inactive: 0.593; with GACCUAAGCUCAUUGACCUTT against Vmn1r13, inactive: 0.356; with GGUACUCGAAUCUGACCUCTT against Nqo1, active: 2.04.
Next, GCACCGAGUGCAAUAGUGUTT against Kremen1: inactive: -0.129.
With GGUCUAGCUCCAAUUGGAUTT against Inca1 the figure was inactive: -0.631; with UGGUCGGCUAGAUGAUGGATT against Wdr34, inactive: -0.7.
Regarding GAACCUUUUCCGUUUCGAGTT against Cebpb, the z-score was inactive: -1.14.
Turning to CCAUGUUCUUCUAUGGCUCTT against Sharpin, the z-score is inactive: -1.36.
With GGAAUGCAGAAAUGAAAAATT against Olfr1234 the figure was inactive: -0.909; with GCUGUAUCAGUCUUUCUAUTT against Cyp27b1, inactive: 0.442.
As for GGAUCAUGAACUCUUAGAATT against Gin1, the z-score is inactive: 0.079.
Next, GGCUGAUCCUAAGAAAGAATT against Rusf1: inactive: -0.657; GCCUGGUAUGAGGAUCUGCTT against Ddit3: inactive: -0.11; GGUAGUAUCUGGCAUAAAATT against Fhl4: inactive: 1.83.
With GGAAAGAUAGAAGACAAACTT against Spry4 the figure was inactive: -0.0777.
With CCAUGGUUCUCAUUAGUAATT against Adk the figure was inactive: -1.29.
For the sequence GCUCCAUGAAUGUCCAACATT against Sphkap, the z-score is active: -2.41.
Next, GCGGUAGGGAUGAAAUAGUTT against Ccnd1: inactive: 1.06; GCUAAUUGAGACCUAUUUCTT against Plp1: inactive: -1.5; GGACUUGUUAGCGCAUCUCTT against Psmb9: inactive: -0.609.
With GCCAAUGCUUCCAUUACCATT against Abca17, the z-score is inactive: 0.141.
With GUGCAUCUACAACAUCGGCTT against Plp2, the z-score is inactive: 0.913.
With GGCUCAGAUACUCUUAUAATT against Aknad1 the figure was active: -3.24; with CGGACCCGAGUUCGAGAAATT against Cherp, inactive: 0.0302; with GCAGCAUCCAAUAAAGGGATT against Car1, inactive: 0.267.
With GCAGCGAUAUGACAGACUCTT against Csrnp1 the figure was inactive: -0.136; with GGCUGUGGACUUUUGUAAUTT against Rmc1, inactive: 0.00337.
For the sequence “ACUCAGUCAUUAAAGAGUGTT against G430095P16Rik”, the z-score was inactive: 0.447.
For the sequence GGAACUCUAUGCCAAUACCTT against Fhl2, the z-score is inactive: 0.472.
Consider GGCUUCAAAAACGACUAAATT against Cep83, for which the z-score was inactive: -0.212.
With GGAUAUGUUGAAAGACAGCTT against Ccdc158 the figure was inactive: 0.296.
With GGGUCAUGAAACCUACCUUTT against Hikeshi the figure was inactive: 0.182.
As for GCCCUGCUGUUGUCAGUCUTT against Krtap5-1, the z-score was inactive: -0.499.
Next, GCAAGUCAAGCUAGAAAAATT against Slc16a1: inactive: -0.46; GGAAAAAGCCAAGCUCAUCTT against Syt3: inactive: -1.5.
Next, GGACAACAAGAUCAGGACCTT against Akap4: inactive: 0.535; GCCUGACAAUAGUCAUUUCTT against Olfr985: active: -2.03.
For the sequence GGGACAGCAGUUCAUUCUATT against Cryba2, the z-score is inactive: 0.954.
As to GGCUCCAAGUCUACACAACTT against Dnajc6, the z-score is active: 2.82.
For the sequence “GGAACAUCAUCAACCACUATT against Olfr911-ps1”, the z-score is inactive: -1.53.
Consider CGUUCAUGUAUUUGAUGUATT against Asb4, for which the z-score is inactive: -0.789.
With CCUUACUGGGUUAGAGAUGTT against Sdf2 the figure was inactive: -0.735.
